Measurements reported in PMC6123492, “Structural and biochemical insights into small RNA 3′ end trimming by Arabidopsis SDN1”.
No constants are given. Whether binding was seen depends on the method and setting. Some entries that bind do so weakly or less than the wild type. Tags and fused reporters may be left off the sequences shown.

How the values were obtained:
[1] = target: T1, MBP-tagged Arabidopsis AGO1 PAZ domain (Arabidopsis) (UniProt O04379); assay: pull-down; as a1 but with RNase A treatment, to test whether the SDN1-AGO PAZ interaction depends on RNA; both purified
T1 sequence: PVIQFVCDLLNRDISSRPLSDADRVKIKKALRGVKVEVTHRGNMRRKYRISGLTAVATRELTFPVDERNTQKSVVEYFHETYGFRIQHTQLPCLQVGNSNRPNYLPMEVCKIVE

[2] = target: T2, MBP-tagged Arabidopsis AGO10 PAZ domain (Arabidopsis) (UniProt Q9XGW1); assay: as above
T2 sequence: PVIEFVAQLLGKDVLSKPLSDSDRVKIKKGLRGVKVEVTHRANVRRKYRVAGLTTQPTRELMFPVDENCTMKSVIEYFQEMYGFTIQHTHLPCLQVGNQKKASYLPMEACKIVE

[3] = target: T1, MBP-tagged Arabidopsis AGO1 PAZ domain (Arabidopsis); assay: pull-down; about 40 μg purified MBP-tagged AGO fragment or MBP alone mixed with 1 μg purified untagged SDN1, captured on dextrin beads, 4 °C overnight; 20 mM Tris-HCl pH 8.0, 100 mM NaCl, 0.1 mM MgCl2, 1 mM DTT, 5% glycerol, 0.2 mg/ml BSA; ten washes with 0.5% NP-40; SDN1 detected by western blot with anti-SDN1; both purified
[4] = target: T2, MBP-tagged Arabidopsis AGO10 PAZ domain (Arabidopsis); assay: as above

binding [1]: binds
binding [2]: binds
binding [3]: binds
binding [4]: binds
B1: Arabidopsis SDN1 (Small RNA Degrading Nuclease 1), recombinant, non-tagged (enzyme, UniProt A3KPE8 2-409)
chain: ELKLATAEKQVLDELVKLLQSRDLRGENGNWKEFLHVYDKNADSPSDPSRRSHEDLVQFLTTFKKKEDLQLLKCHANHLLIENLKQESQDEDTPEQMLVRLTVEHPSYSLDYSFKPYSEDWFVSDVGMKMKKVMESTNMVAVDCEMVLCEDGTEGLVRVGVVDRDLKVILDEFVKPNKPVVDYRTDITGITAEDIENASLSVVDIQETLQPFLSTGTILVGHSLNRDLEVLKIDHPKVIDTALVFKYPNTRKLRRPSLNNLCKSILGYEVRKTGVPHDCVHDASAAMKLALAVVEKRVDTTIKPSKEMLEVEKAKLFLHKIPNNVPSEELEQVLSGKFTLDVKQAKTQGRYYCAFALFHSSEDADQAFEHIDGIEMTDSLGLPQKVVIIKLSSGSRASIYVRKMVQDE
